Test [1] concerns the target T1, p63 (mouse) (UniProt O88898).
T1 sequence (looked up): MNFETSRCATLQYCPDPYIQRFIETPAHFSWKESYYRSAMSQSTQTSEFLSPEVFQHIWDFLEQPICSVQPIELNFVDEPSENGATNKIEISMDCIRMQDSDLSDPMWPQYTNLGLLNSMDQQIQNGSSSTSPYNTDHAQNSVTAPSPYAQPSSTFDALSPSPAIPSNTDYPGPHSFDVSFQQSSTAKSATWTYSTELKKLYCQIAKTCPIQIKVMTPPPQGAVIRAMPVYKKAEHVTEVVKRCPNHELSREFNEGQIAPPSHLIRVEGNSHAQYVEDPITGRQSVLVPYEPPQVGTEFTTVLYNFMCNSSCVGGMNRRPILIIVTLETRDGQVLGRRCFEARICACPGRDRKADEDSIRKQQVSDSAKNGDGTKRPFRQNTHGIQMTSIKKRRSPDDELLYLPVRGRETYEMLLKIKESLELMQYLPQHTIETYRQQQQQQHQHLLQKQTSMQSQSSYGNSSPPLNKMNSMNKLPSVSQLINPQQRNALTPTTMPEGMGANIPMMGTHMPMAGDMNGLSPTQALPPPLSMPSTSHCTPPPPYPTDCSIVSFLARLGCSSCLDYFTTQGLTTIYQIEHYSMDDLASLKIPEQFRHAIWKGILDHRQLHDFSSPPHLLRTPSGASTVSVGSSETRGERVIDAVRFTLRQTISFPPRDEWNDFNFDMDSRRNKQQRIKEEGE
Description: co-immunoprecipitation from PPT cell extracts, western blot.

Sequences of proteins named here, by UniProt entry; tags and fusion partners are left off. Residues count along the entry.
UniProt Q62432, residues 2-467: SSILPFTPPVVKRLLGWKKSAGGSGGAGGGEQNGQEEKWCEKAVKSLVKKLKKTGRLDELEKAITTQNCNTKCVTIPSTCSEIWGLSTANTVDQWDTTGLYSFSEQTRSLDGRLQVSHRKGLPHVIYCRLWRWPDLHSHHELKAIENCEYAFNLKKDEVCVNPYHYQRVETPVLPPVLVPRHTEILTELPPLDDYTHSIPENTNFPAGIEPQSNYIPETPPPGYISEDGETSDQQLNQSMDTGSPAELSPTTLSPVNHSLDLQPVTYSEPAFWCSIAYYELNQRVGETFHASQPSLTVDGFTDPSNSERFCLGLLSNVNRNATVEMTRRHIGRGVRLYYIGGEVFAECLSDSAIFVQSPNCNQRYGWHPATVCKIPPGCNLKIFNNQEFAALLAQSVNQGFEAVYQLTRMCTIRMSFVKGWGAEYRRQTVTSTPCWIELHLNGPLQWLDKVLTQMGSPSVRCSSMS

The target in test [2] is T1, p63 (mouse). Description: co-immunoprecipitation (FIG. 7D legend).

These are yes or no findings as the source states them, for the method shown. Binding seen in cells or lysates may run through a third protein. Some entries that bind do so weakly or less than the wild type.

Regarding Smad2 (from UniProt Q62432 2-467), the binding entry with p63 (mouse) [1] and in the test with p63 (mouse) [2] was “binds” in each case.

Values taken from patent publication US20220265798A1.
